Tested on: ovary-removed rats
Settings: 1.0 mg/kg (T1)
Protocol: In order to investigate the effects of the inventive mutual salts on BMD, bone stiffness, serum cholesterol level and calcium density, in vivo tests were carried out as follows.
Also, 1.5% carboxymethylcellulose alone was administrated in a same manner to each of ovary-removed rats (group OVX) and normal rats (control, group Sham). After 8 weeks, a femur sample was obtained from each test groups to measure BMD, maximum load, stiffness, trabecular volume of epiphysis, bone volume of metaphysis, blood cholesterol level and blood calcium density.

Question: `NCCCC(O)(P(=O)(O)O)P(=O)(O)O` [Alendronate, sodium alendronate trihydrate] was tested. Which “Blood calcium density Conc.” value (oophorectomy rats, oral once a day 8 weeks) did it give?
Answer: 6.15 ± 0.39 mg/dL

Question: What about the “BMD Relativ. Density” value (relative to OVX control = 1.00) of the same compound?
Answer: 1.19

Question: What about the “Blood calcium density Relativ. Conc.” value (relative to OVX control = 1.00) of the same compound?
Answer: 0.65
